PubChem BioAssay AID1224828, NIAID – 2016
This is an unselected part of about 17,000 reagents. In the full data, 762 (4.5%) were called active. 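Active calls include both raised and lowered p65 entry, mostly lowered; wells with fewer than 50 cells lack a z-score.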 Raw values are not corrected between plates.

Aim: 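Regulators linking TLR4 signalling to p65 nuclear translocation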 (primary screen)
Cell system: mouse RAW264.7 G9 macrophage reporter cells (GFP-p65, Tnf promoter-mCherry)
Reagent: siRNA pool against mouse genes, 100 nM
Duration: 2 days siRNA transfection, then 40 min LPS before fixation
Conditions: LPS (Salmonella minnesota R595) at 10 ng/ml
Read-out: 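Imaged p65 nuclear translocation ratio, normalised to the plate median, converted to robust z-scores and averaged across two replicates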
Direction: p65 translocation robust z-score: higher = more nuclear NF-kappaB p65 after LPS than the plate median; nuclear/cytoplasmic p65 ratio: higher = more nuclear NF-kappaB p65
Active means: 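Active if robust z is above 3.3 (negative regulators) or below -1.56, the Tlr4 control median (positive regulators); activity score 50 or more; control wells not called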
Meaning of the calls: active = hit (p65 shift raised or lowered); inactive = no clear change

no.	gene symbol	p65 translocation robust z-score	nuclear/cytoplasmic p65 ratio, rep 1	nuclear/cytoplasmic p65 ratio, rep 2	low cell count flag	activity call
1	Hs2st1	0.31	1.55	1.6	enough cells to score	inactive
2	Fut2	-0.99	1.25	1.3	enough cells to score	inactive
3	Actg1	-0.54	1.57	1.51	enough cells to score	inactive
4	Nlrp12	0.27	1.52	1.34	enough cells to score	inactive
5	Frg1	0.76	1.73	1.54	enough cells to score	inactive
6	Lmbrd1		1.07	0.993	fewer than 50 cells per well; well left out of scoring	inactive
7	Ccdc83	0.01	1.3	1.27	enough cells to score	inactive
8	Fbxo48		1.34	1.36	fewer than 50 cells per well; well left out of scoring	inactive
9	Depdc1a	-0.64	1.47	1.22	enough cells to score	inactive
10	Fkbp10	0.37	1.67	1.5	enough cells to score	inactive
11	Klf10	-0.48	1.46	1.45	enough cells to score	inactive
12	Fhip1a	-0.64	1.35	1.45	enough cells to score	inactive
13	Slc17a1	1.28	1.59	1.39	enough cells to score	inactive
14	Heyl	0.59	1.46	1.5	enough cells to score	inactive
15	Senp6	0.34	1.32	1.3	enough cells to score	inactive
16	Or2m13	-1.37	1.37	1.28	enough cells to score	inactive
17	Wdr1	0.33	1.62	1.59	enough cells to score	inactive
18	Tgif2	-0.62	1.49	1.38	enough cells to score	inactive
19	B4galt1	0.1	1.65	1.61	enough cells to score	inactive
20	Bcas2	0.59	1.67	1.73	enough cells to score	inactive
21	2610318N02Rik		1.39	1.35	fewer than 50 cells per well; well left out of scoring	inactive
22	Or2t45	-1.68	1.36	1.21	enough cells to score	active
23	Mog	0.06	1.98	1.44	enough cells to score	inactive
24	Wwp2	-0.86	1.48	1.49	enough cells to score	inactive
25	Ifi30	0.25	1.46	1.42	enough cells to score	inactive
26	Pacsin1	0.78	1.89	1.41	enough cells to score	inactive
27	Aste1	-0.34	1.49	1.4	enough cells to score	inactive
28	Krt25	0.34	1.32	1.24	enough cells to score	inactive
29	Wnt10b	0.07	1.58	1.63	enough cells to score	inactive
30	Pramel52-ps	0.22	1.34	1.63	enough cells to score	inactive
31	Aldoa	0.1	1.66	1.61	enough cells to score	inactive
32	4932411K12Rik (retired record)		1.22	1.23	fewer than 50 cells per well; well left out of scoring	inactive
33	Dysf	0.73	1.66	1.4	enough cells to score	inactive
34	Il18r1	-0.19	1.43	1.37	enough cells to score	inactive
35	Fbxo6	-0.81	1.41	1.22	enough cells to score	inactive
36	Tfam	1.09	1.6	1.75	enough cells to score	inactive
37	Tcf25	-0.79	1.42	1.47	enough cells to score	inactive
38	Bora	0.52	1.44	1.62	enough cells to score	inactive
39	Has2	-0.4	1.57	1.5	enough cells to score	inactive
40	Dmrtc2	-2.02	1.18	1.21	enough cells to score	active
41	Chtf8	-0.24	1.39	1.37	enough cells to score	inactive
42	Ostn	-0.26	1.31	1.29	enough cells to score	inactive
43	Zfp292	0.43	1.46	1.31	enough cells to score	inactive
44	Pus3	0.19	1.47	1.49	enough cells to score	inactive
45	Slc43a2		1.33	1.6	fewer than 50 cells per well; well left out of scoring	inactive
46	Bmf		1.12	1.21	fewer than 50 cells per well; well left out of scoring	inactive
47	Ehd4	1.73	1.89	1.41	enough cells to score	inactive
48	Or8h10	0	1.74	1.51	enough cells to score	inactive
49	Renbp	-0.08	1.46	1.55	enough cells to score	inactive
50	Phip	-0.12	1.46	1.41	enough cells to score	inactive
51	Kctd18	1.6	1.59	1.83	enough cells to score	inactive
52	Cpsf4	1.69	1.85	2.04	enough cells to score	inactive
53	Eif4e2	-1.12	1.35	1.19	enough cells to score	inactive
54	Stk31	1.36	1.89	1.57	enough cells to score	inactive
55	Adam11	0.29	1.67	1.66	enough cells to score	inactive
56	Pramel7	0.47	1.42	1.28	enough cells to score	inactive
57	Ss18l1	-0.85	1.25	1.18	enough cells to score	inactive
58	Txnl4b	-1.17	1.4	1.38	enough cells to score	inactive
59	Kcns1	0.21	1.46	1.45	enough cells to score	inactive
60	Ahsa2	0.77	1.55	1.52	enough cells to score	inactive
61	1700001G17Rik	-0.46	1.36	1.34	enough cells to score	inactive
62	Clpp	-0.63	1.47	1.3	enough cells to score	inactive
63	Zxdc	-0.74	1.47	1.72	enough cells to score	inactive
64	Gfpt2	-0.28	1.53	1.6	enough cells to score	inactive
65	Sumo3	0.37	1.44	1.29	enough cells to score	inactive
66	Gtpbp2	-1.88	1.33	1.3	enough cells to score	active
67	Usp44	-0.76	1.36	1.33	enough cells to score	inactive
68	Klf3		1.41	1.44	fewer than 50 cells per well; well left out of scoring	inactive
69	Ftsj1	0.02	1.47	1.35	enough cells to score	inactive
70	Slc34a1		0	2.25	fewer than 50 cells per well; well left out of scoring	inactive
71	Nutm1	-0.44	1.65	1.43	enough cells to score	inactive
72	Ptk6	-1.24	1.49	1.22	enough cells to score	inactive
73	Commd2	1	1.72	1.96	enough cells to score	inactive
74	Vnn1	0.87	1.55	1.7	enough cells to score	inactive
75	Slc22a8	0.81	1.56	1.31	enough cells to score	inactive

Just “nuclear/cytoplasmic p65 ratio, rep 1”, for 11 of the entries above:
4932411K12Rik (retired record): 1.22
Dysf: 1.66
Il18r1: 1.43
Fbxo6: 1.41
Tfam: 1.6
Tcf25: 1.42
Bora: 1.44
Has2: 1.57
Dmrtc2: 1.18
Chtf8: 1.39
Ostn: 1.31
